Measured values from patent US20110117168A1, “METHODS AND COMPOSITIONS FOR SOFT TISSUE REPAIR” (AFFINERGY, INC., priority 2009, published 2011).
No constants are given. Whether binding was seen depends on the method and setting. Some results given as binding are weak or reduced against the parent protein; the word gives no strength.

Chains of the proteins cited; added tags and fusions are not shown. Residues count along the entry.
UniProt P01127, residues 82-190: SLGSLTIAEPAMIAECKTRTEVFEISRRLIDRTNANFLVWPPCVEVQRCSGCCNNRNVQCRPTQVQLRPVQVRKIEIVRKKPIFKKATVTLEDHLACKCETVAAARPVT

Legend:
[1] = biological target: platelet derived growth factor-BB (PDGF-BB) (human) (UniProt P01127); test: plate assay: biotinylated peptide on streptavidin, PDGF-BB dilution series, anti-PDGF-BB antibody detection; compared with SEQ ID NO: 25
[2] = biological target: platelet derived growth factor-BB (PDGF-BB) (human) (UniProt P01127); test: plate assay: biotinylated peptide on streptavidin, PDGF-BB dilution series, anti-PDGF-BB antibody detection

| binding [1] | binding [2] | Binder |
| --- | --- | --- |
| binds | – | DEDESPWVTWYYSASSPGSSGK (biotin on the C-terminal Lys of the added GSSGK(biotin) sequence) [synthetic biotinylated PDGF binding peptide SEQ ID NO: 31] |
| binds | – | DDSPWVTWYYSASSPGSSGK (biotin on the C-terminal Lys of the added GSSGK(biotin) sequence) [synthetic biotinylated PDGF binding peptide SEQ ID NO: 29] |

The remaining lines, values behind:

| Binder | binding [1] | binding [2] |
| --- | --- | --- |
| DDDDSPWVTWYYSASSPGSSGK (biotin on the C-terminal Lys of the added GSSGK(biotin) sequence) [synthetic biotinylated PDGF binding peptide SEQ ID NO: 30] | binds | – |
| DEDEDESPWVTWYYSASSPGSSGK (biotin on the C-terminal Lys of the added GSSGK(biotin) sequence) [synthetic biotinylated PDGF binding peptide SEQ ID NO: 32] | binds | – |
| SPWVTWYYSASSPGSSGK (biotin on the C-terminal Lys of the added GSSGK(biotin) sequence) [synthetic biotinylated PDGF-binding peptide SEQ ID NO: 25] | – | binds |
